No constants are given. Whether binding was seen depends on the method and setting. In cells and extracts the contact can be indirect. Tags and fused reporters may be left off the sequences shown.
Molecular target: T1, Flag-tagged human GBP1 (GBP1-Wt) (human) (UniProt P32455)
T1 sequence: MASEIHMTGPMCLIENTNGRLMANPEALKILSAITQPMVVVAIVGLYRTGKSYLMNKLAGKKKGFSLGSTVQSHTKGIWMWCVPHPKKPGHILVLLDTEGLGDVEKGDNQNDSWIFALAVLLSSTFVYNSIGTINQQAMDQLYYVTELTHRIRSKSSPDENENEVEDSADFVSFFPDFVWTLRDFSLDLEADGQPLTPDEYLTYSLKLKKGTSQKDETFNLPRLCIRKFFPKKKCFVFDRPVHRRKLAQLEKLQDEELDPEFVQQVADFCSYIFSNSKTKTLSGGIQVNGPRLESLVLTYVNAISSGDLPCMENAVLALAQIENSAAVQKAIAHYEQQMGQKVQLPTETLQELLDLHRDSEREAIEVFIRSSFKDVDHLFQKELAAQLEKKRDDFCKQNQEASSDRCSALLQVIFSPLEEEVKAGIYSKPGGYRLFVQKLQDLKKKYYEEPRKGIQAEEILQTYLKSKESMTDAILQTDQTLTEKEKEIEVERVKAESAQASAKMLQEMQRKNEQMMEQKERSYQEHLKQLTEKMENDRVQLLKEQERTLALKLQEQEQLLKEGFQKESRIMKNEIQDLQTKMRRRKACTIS
Assay: co-IP; co-immunoprecipitation using a Flag-tagged GBP1 construct; cells, buffer and conditions not told; no blot shown

HCV core protein (hepatitis C virus) was tested, and the binding was “no binding”.

— publication PMC10868826
